The target in assay [1] is T1, human IGFBP-1 (human, UniProt P08833 26-259).
T1 sequence (looked up): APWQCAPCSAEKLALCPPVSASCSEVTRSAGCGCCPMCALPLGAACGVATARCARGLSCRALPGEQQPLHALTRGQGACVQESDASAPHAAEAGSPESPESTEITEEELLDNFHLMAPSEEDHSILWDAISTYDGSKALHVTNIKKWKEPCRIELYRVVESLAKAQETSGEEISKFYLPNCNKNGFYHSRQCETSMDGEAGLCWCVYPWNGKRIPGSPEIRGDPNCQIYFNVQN
As to the kind of experiment: ELISA. (ELISA stands for enzyme-linked immunosorbent assay.)

Assay [2] addresses T1, human IGFBP-1. As to the kind of experiment: condition: >200-fold potency reduction against BP1-01; BIAcore inhibition assay. Background: Surface plasmon resonance follows binding to a sensor surface in real time, without labels.

Results are given in words; binding and its absence hold for the method and conditions named.

B1: BP1-04 (peptide)
peptide: CRAGPLQWLCE
modifications: disulfide between the two Cys
On to B1, for which the binding result in assay [1] is given as “no binding (tested: >1000-fold the IC50 of BP1-01)”.

B2: (i+8)A (peptide)
peptide: LEWLAEKYFE
modifications: N-terminal acetyl; first and last Glu joined as amides with 1,5-diaminopentane
As for B2, the binding result in assay [2] is reported as “no binding”.

(Values after patent US20090011988A1 (Genentech, published 2009).)
